The whole screen tested about 580,000 compounds, of which about 6,100 (1.1%) were called active. The inconclusive results got no clear call from the source; some entries with a clear call stand among them for comparison. Calls follow the shape of the dose curve; as a rule, active = well fitted inhibition curve with a large enough effect; inconclusive = small, poorly fitted or top-dose-only effect, or another doubt; inactive = no such curve, though single readings can be large or run the other way. Potencies of inconclusive entries are doubtful fits and often do not repeat.
Molecular target: Polyunsaturated fatty acid lipoxygenase ALOX12 (Homo sapiens) (UniProt P18054)
Assay: Primary qHTS assay for inhibitors of human arachidonate 12S-lipoxygenase (ALOX12): Round 2
Conditions: purified 12hLO, xylenol orange hydroperoxide absorbance; series mostly up to 108 µM
Method in brief: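 Hydroperoxide product was detected by ferrous iron/xylenol orange as the 573 to 405 nm absorbance ratio. Arachidonic acid at 40 uM (final) was turned over for 30 min at room temperature by 150 nM human 12hLO, pH 7.0 Hepes buffer, after 15 min compound preincubation.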
Potency is read from the fitted curve at half-maximal effect.

The chains behind the UniProt entries cited, without tags or fusion partners.
UniProt P18054, whole entry, looked up: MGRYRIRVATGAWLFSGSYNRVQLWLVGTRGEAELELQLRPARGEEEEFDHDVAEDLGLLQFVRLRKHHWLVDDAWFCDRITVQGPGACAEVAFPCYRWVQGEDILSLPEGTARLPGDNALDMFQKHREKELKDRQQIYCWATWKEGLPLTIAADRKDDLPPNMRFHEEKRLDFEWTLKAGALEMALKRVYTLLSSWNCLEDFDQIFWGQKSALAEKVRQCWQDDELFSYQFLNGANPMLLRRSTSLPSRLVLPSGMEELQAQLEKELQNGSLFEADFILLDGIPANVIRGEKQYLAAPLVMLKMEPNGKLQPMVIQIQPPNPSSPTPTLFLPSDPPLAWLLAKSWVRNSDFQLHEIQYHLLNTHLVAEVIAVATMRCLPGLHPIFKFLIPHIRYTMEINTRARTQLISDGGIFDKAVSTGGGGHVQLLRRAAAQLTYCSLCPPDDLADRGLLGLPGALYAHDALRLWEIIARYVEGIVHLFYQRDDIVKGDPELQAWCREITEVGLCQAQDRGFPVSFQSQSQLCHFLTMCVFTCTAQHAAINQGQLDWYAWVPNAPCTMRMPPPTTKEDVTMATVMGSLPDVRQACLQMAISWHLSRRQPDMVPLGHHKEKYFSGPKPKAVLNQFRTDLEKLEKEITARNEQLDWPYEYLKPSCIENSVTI

| Structure (SMILES) | Potency |
| --- | --- |
| COc1ccccc1C1/C(=C(/O)c2ccc(C)cc2)C(=O)C(=O)N1Cc1ccco1 (centres undefined) | inconclusive: 44.7 µM [inhibitor, partial curve] |
| Cc1nc(C)c(C(=O)NNC(=O)c2ccc(Br)cc2)s1 | inconclusive: 17.8 µM [inhibitor, partial curve, poor fit] |
| CCOC(=O)CSc1nc2sc3c(c2c(=O)n1-c1ccccc1)CCN(C(C)C)C3 | inactive |
| O=C1NC(C(=O)NCc2ccc(OC(F)(F)F)cc2)Cn2cccc21 (centres undefined) | inactive |
| Cc1cnc(CC2CCN(C(=O)N(C)C)C2)n1CC1CC1 (centres undefined) | inactive |
| CCNCCNC(=O)c1c(O)c2cccc3c2n(c1=O)CCC3 | inactive |
| Cc1cccc(C)c1NC(=O)Cn1cc(S(=O)(=O)Cc2ccc(F)cc2)c2ccccc21 | active: 50.1 µM |
| COc1ccccc1CNC(=O)c1cnn(-c2nccc(-c3cccs3)n2)c1C | inconclusive: 141 µM [inhibitor, single point] |
| CCCCOC(=O)C1=C(C)Nc2ncnn2C1c1ccc(OC)c(OC)c1 (centres undefined) | inactive |
| C=CCc1ccc(OCCCN2CCCC(C)C2)c(OC)c1 (centres undefined) | inconclusive: 0.891 µM [inhibitor, full curve, poor fit] |
| CCOC(=O)C(=O)/C(=C\N(C)C)c1onc(-c2c(F)cccc2Cl)c1C(=O)OC | inconclusive: 31.6 µM [inhibitor, single point] |
| O=C(/C=C/c1cccc2cccnc12)OCc1cc(-c2ccc(Cl)cc2)no1 | inactive |
| COCc1c(C(=O)N2CCN(Cc3nc4ccccc4s3)CC2)oc2ccccc12 | inconclusive: 31.6 µM [inhibitor, partial curve, poor fit] |
| COc1cccc(/C=N/n2c(-c3cccs3)n[nH]c2=S)c1 | inconclusive: 12.6 µM [inhibitor, full curve, poor fit] |
| CCc1noc(-c2cccn3c(CNC(=O)Cc4ccc(F)cc4)nnc23)n1 | inactive |
| CCCCCCc1c(C)c2ccc(OCC(=O)N[C@@H](Cc3ccccc3)C(=O)O)cc2oc1=O | inactive |
| CCOC(=O)c1[nH]c(C)c(C(=O)c2ccc(C)cc2)c1C | inactive |
| C#CCOc1c(Br)cc(/C=C2/NC(=O)NC2=O)cc1OCC | inactive |
| COc1ccc(C(=O)c2ccccc2)c(OC(=O)c2ccccc2Sc2ccccc2C#N)c1 | inconclusive: 44.7 µM [inhibitor, partial curve] |
| Cc1ccc(CN2CCC3(CC2)CNc2ccccc2[S+](=O)([O-])N3)cc1 | inconclusive: 35.5 µM [inhibitor, single point] |
| Nn1c(SCC(=O)Nc2cccc(F)c2)nnc1C1CCCCC1 | inactive |
| Cc1ccc(CNC(=O)CN2C(=O)COc3ccccc32)cc1 | inconclusive: 126 µM [inhibitor, single point] |

| Structure (SMILES) | Potency |
| --- | --- |
| CN(CCOCCOc1ccc(F)cc1)Cc1ccccc1 | inconclusive: 0.355 µM [inhibitor, full curve, poor fit] |
| Cc1nn(-c2ccccc2)c(CSc2ccc3c(c2)OCCCO3)c1C#N | inconclusive: 50.1 µM [inhibitor, partial curve, poor fit] |
| COc1cc(SC)ccc1C(=O)OCC(=O)NCC(C)C | inactive |
| COCC(N)(c1ccccc1)c1nc2ccccc2n1C (centres undefined) | inconclusive: 35.5 µM [inhibitor, single point] |
| NC(=O)c1ccc(/C=N/O)[n+](Cc2ccccc2)c1 | inconclusive: 50.1 µM [inhibitor, single point] |
| COc1ccc(Br)cc1S(=O)(=O)NCCN1CCCCCC1 | inconclusive: 20 µM [inhibitor, partial curve, poor fit] |
| O=c1c(-c2ccccc2)nc2cnc(Oc3cccc(Cl)c3)nc2n1C[C@H]1CCCO1 | inconclusive: 100 µM [inhibitor, single point] |
| Cc1cccc(OCC(=O)Nc2ccc(N3CCCC3)cc2)c1C | inconclusive: 14.1 µM [inhibitor, full curve, poor fit] |
| CN1CCn2cnc(C(=O)N[C@@H](Cc3ccccc3)C(=O)OC(C)(C)C)c2C1=O | inconclusive: 3.55 µM [inhibitor, full curve, poor fit] |
| CN1C(=O)/C(=C/c2ccc(OC(=O)c3ccco3)cc2)SC1=S | inactive |
| Fc1ccc(OCCCCCn2ccnc2)cc1 | inconclusive: 50.1 µM [inhibitor, partial curve, poor fit] |
| O=C(O)[C@@H]1CN(Cc2ccccc2)C[C@@H]1C(=O)N1CCSCC1 | inconclusive: 2.51 µM [inhibitor, full curve] |
| OCc1nc2ccccc2n1CC(O)COc1cc(Cl)ccc1Cl (centres undefined) | inconclusive: 141 µM [inhibitor, single point] |
| Cc1ccc(NC(=O)CSC2=C(C#N)C(c3ccco3)C3=C(CC(C)(C)CC3=O)N2)cc1 (centres undefined) | inconclusive: 89.1 µM [inhibitor, single point] |
| CCOc1ccc(OCCn2c(=S)[nH]c3ccccc32)cc1 | inconclusive: 44.7 µM [inhibitor, partial curve, poor fit] |
| CC#CCCCC(=O)Nc1ccccc1C(=O)O | inconclusive: 6.31 µM [inhibitor, full curve] |
| COc1ccccc1-c1csc(C(C)(NC(C)=O)c2ccccc2)n1 (centres undefined) | inactive |
| O=C(O)c1cccc(NC(=S)N/N=C/c2ccccc2OCc2cccc(Br)c2)c1 | active: 28.2 µM |
| Cn1cc(-c2cnc(Nc3ccc(N4CCOCC4)cc3)c3c2CCO3)cn1 | inconclusive: 100 µM [inhibitor, partial curve] |
| COC(=O)C1=C(C)N(CC(C)C)C(=S)NC1c1ccc(-c2ccccc2)cc1 (centres undefined) | inconclusive: 39.8 µM [inhibitor, partial curve, poor fit] |
| CCOc1ccc(NC(=O)Nc2cc(C)c3nc(NC(C)=O)sc3c2)cc1 | inconclusive: 56.2 µM [inhibitor, partial curve, poor fit] |
| CN(C)CCCNC(=O)C[C@H]1C[C@H](C(=O)N2CCOCC2)[C@@]2(C)c3[nH]c4ccc(Cl)cc4c3CCN2C1=O | inconclusive: 100 µM [inhibitor, single point] |

2 records drawn at random from those above, as already listed:

| Structure (SMILES) | Potency |
| --- | --- |
| CN(CCOCCOc1ccc(F)cc1)Cc1ccccc1 | inconclusive: 0.355 µM [inhibitor, full curve, poor fit] |
| O=c1c(-c2ccccc2)nc2cnc(Oc3cccc(Cl)c3)nc2n1C[C@H]1CCCO1 | inconclusive: 100 µM [inhibitor, single point] |

From PubChem BioAssay AID1671190 (National Center for Advancing Translational Sciences (NCATS), 2021)
